# Assay results: PubChem BioAssay AID743266 (National Center for Advancing Translational Sciences (NCATS), 2014)
# Chains of the proteins cited; added tags and fusions are not shown.
# UniProt Q03431, whole entry, looked up: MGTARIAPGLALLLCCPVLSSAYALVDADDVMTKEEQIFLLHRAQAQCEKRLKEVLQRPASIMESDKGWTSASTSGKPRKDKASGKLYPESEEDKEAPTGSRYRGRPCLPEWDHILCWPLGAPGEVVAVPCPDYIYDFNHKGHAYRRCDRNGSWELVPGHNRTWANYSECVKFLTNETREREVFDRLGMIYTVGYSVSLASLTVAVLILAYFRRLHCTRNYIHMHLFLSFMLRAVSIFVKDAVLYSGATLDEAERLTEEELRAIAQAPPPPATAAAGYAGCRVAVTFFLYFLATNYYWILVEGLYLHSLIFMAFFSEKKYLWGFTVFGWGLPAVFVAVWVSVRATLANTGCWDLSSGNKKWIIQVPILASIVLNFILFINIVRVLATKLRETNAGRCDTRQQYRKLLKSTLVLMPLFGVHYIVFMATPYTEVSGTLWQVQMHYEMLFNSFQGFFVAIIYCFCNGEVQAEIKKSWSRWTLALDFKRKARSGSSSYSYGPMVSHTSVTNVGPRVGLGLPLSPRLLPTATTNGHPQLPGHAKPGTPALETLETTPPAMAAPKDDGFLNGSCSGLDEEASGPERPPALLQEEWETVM
# In all, about 410,000 compounds went through this assay and about 310 (0.076%) were called active. Inconclusive means that the source gave no clear call. Such entries were picked first, then a sample of the others. The call rests on the fitted dose curve; in most records, active means well fitted activation curve with a large enough effect; inconclusive means small, poorly fitted or top-dose-only effect, or another doubt; inactive means no such curve, though single readings can be large or run the other way. Where the call is inconclusive, the potency comes from a doubtful curve fit.
# Biological target: Parathyroid hormone/parathyroid hormone-related peptide receptor (Homo sapiens) (UniProt Q03431)
# Assay: qHTS for PTHR1 Agonists: Primary Screen; further: nearly all actives have a fitted effect of over 55% in size
# Details: HEK293 GP2 PTHR1 cells, GloSensor cAMP luminescence, 1 h; activation: at 115 µM (top of the series) unless noted; series mostly up to 115 µM
# Method in brief: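 HEK-293-derived GP2 cells expressing PTHR1 and a GloSensor cAMP reporter, 3,000/well, plated overnight, given luciferin plus IBMX (each 0.5 mM as added) for 1 h at 37 °C, then compound for 1 h at 37 °C. Luminescence was read after 15 min at room temperature.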
# Potency means the concentration at half of the fitted maximal effect.
Compound,activation,Potency
O=C(c1cc2c(=O)oc3ccccc3c2s1)N1CCN(c2ccccc2)CC1,inconclusive: -32.7% [activator],
CC(C)c1cccc(C(C)C)c1NC(=O)COC(=O)c1ccc2c(c1)S(=O)(=O)c1ccccc1C2=O,,"inconclusive: 100 µM [activator, single point]"
COCCN(CC1CCCN(C2Cc3ccccc3C2)C1)C(=O)CCC(C)=O (stereo unspecified),,"inconclusive: 14.1 µM [activator, partial curve, poor fit]"
Cc1sc(NC(=O)C2CCCCC2C(=O)O)c(C(N)=O)c1C (stereo unspecified),,"inconclusive: 22.4 µM [activator, single point]"
Clc1nnc(NC2CCCCC2)c(Cl)c1Cl,,inactive
COc1ccc(S(=O)(=O)Cc2ccc(C(=O)O)o2)cc1,,"inconclusive: 28.2 µM [activator, partial curve, poor fit]"
Cc1ccc(S(=O)(=O)N2CCCC(C(=O)NCc3ccc4c(c3)OCO4)C2)cc1 (stereo unspecified),,inactive
Fc1ccc(NC(=S)NCCc2ccc(Cl)cc2)cc1,,"inconclusive: 141 µM [activator, single point]"
O=C(CCCn1c(=O)c2cccn2c2ccccc21)NCc1ccccc1Br,,inactive
COCCNC(=O)C1(C)CCCN(CCOc2ccc(Cl)cc2)C1 (stereo unspecified),inconclusive: 8.04% [activator],
CC(=O)NN1C(=O)c2ccccc2NC1c1ccccc1 (stereo unspecified),,"inconclusive: 5.62 µM [activator, partial curve, poor fit]"
CCN(CC)C(=O)COc1cccc2ccccc12,,"inconclusive: 1.12 µM [activator, full curve, poor fit]"
Cc1cc(=O)n2c(nc3ccccc32)[nH]1,,active: 31.6 µM
CCOc1ccc(N2CC(NC(=O)C3CC3)CC2=O)cc1 (stereo unspecified),,inactive
CCOc1ccc(NC(=O)CSc2nc(C)c3c(c2C#N)CCCC3)cc1,,"inconclusive: 3.98 µM [activator, partial curve, poor fit]"
N#Cc1ccccc1NC(=S)NC(=O)C1CCC1,,inactive
COc1ccc(CCNCc2ccc3c(c2)n(C)c(=O)n3C)cc1OC,,"inconclusive: 1.58 µM [activator, partial curve, poor fit]"
Cc1cccc(S(=O)(=O)c2cn(C)c3cc(N4CCN(c5ccccc5)CC4)c(F)cc3c2=O)c1,,"inconclusive: 14.1 µM [activator, partial curve, poor fit]"
CC1(C)C2(C#N)C(N)=NC3(OCCO3)C12C#N (stereo unspecified),inconclusive: 12.6% [activator],
Cc1cc(=O)[nH]c(-n2[nH]c(C)cc2=O)n1,inconclusive: 30.4% [activator],
COc1ccc2nc(C(c3ccc(C)cc3)n3c(-c4ccccc4Br)nc4ccccc43)[nH]c2c1 (stereo unspecified),,inactive
CC(C)OC(=O)CC1C(=O)NCCN1C(=S)NC(=O)c1ccccc1Cl (stereo unspecified),inconclusive: -46% [activator],
Cn1cccc1C(=S)N=P(C1CCCCC1)(N1CCOCC1)N1CCOCC1,,inactive
C=CCn1nc(-c2ccccc2)cc1C(=O)OCC,,inactive

Compound,activation,Potency
CC(C)Cc1ccc(C(C)C(=O)Nc2ccc(O)cc2)cc1 (stereo unspecified),,inactive
COc1ccc(C(C(=O)NC(C)(C)C)N(C[C@H]2CC[C@@H]([C@@H]3CC[C@H](CO)O3)O2)C(=O)c2ccccc2)cc1 (stereo partly specified),,"inconclusive: 44.7 µM [activator, partial curve, poor fit]"
CCOCCCNS(=O)(=O)c1ccc(NC(=O)c2ccccc2)cc1,,"inconclusive: 0.316 µM [activator, partial curve, poor fit]"
O=C(COc1ccccc1F)Nc1ccc(OCc2cc(=O)n3ccccc3n2)cc1,,"inconclusive: 79.4 µM [activator, partial curve, poor fit]"
O=C(CN1C(=O)C2C3C=CC(C3)C2C1=O)NCc1ccc2c(c1)OCO2 (stereo unspecified),,"inconclusive: 50.1 µM [activator, single point]"
COc1ccc(C(CC(=O)O)NC(=O)Cc2ccccc2)cc1OC (stereo unspecified),,"inconclusive: 158 µM [activator, single point]"
COCCNc1ncnc2c1ncn2[C@H]1CN(CCOC)C[C@@H](CO)O1,,inactive
C=CCn1c(SCc2ccc(C#N)cc2)nnc1-c1cccc(Cl)c1,,"inconclusive: 50.1 µM [activator, partial curve, poor fit]"
O=c1ccn(Cc2ccccc2)c(=O)n1Cc1ccccc1,,"inconclusive: 44.7 µM [activator, single point]"
CC(=O)c1ccc(OCc2cc(C(=O)N(C)C3CCOC3)no2)cc1 (stereo unspecified),,"inconclusive: 25.1 µM [activator, single point]"
O=C(N/C=N/OCc1cccc(C(F)(F)F)c1)N1OC[C@@H]2COc3ccc4ccccc4c3[C@@H]21,,inactive
O=C(NCc1ccc(F)cc1)C1CCN(c2ncnc3c2nc2n3CCCCC2)CC1,,inactive
CCn1nc(C(=O)NCC2COc3ccccc3O2)c2ccccc2c1=O (stereo unspecified),,"inconclusive: 126 µM [activator, single point]"
CCOCCCNC(=O)Cn1cnc2sc(C)c(S(=O)(=O)N3CCN(c4ncccn4)CC3)c2c1=O,,"inconclusive: 141 µM [activator, single point]"
CC(C)CCn1c(N2CCCC2)nc2c1c(=O)[nH]c(=O)n2C,,"inconclusive: 112 µM [activator, single point]"
CCN(C(=O)COC(=O)c1cncc(Br)c1)C1CCS(=O)(=O)C1 (stereo unspecified),,inactive
Cc1noc(C)c1COc1cccc(C(=O)OCCOc2ccc(F)cc2)c1,,inactive
O=C(C[C@@H]1C/C=C\C[C@@H](Cc2ccc(F)cc2)C(=O)OCCNC1=O)NCCO,,inactive
O=C(NC(=Nc1ccccc1)N1CCOCC1)Nc1ccccc1,,"inconclusive: 39.8 µM [activator, partial curve, poor fit]"
CC(C)NC(=O)N(C)C[C@@H]1OCc2cn(nn2)CCCC(=O)N([C@H](C)CO)C[C@H]1C,,inactive
CCCCN(CC)CCNC(=O)C1c2cc(OC)c(OC)cc2C(=O)N2CCc3ccccc3C12 (stereo unspecified),,inactive
Cc1cc(=O)oc2cc(OCC(O)Cn3ccnc3)ccc12 (stereo unspecified),,"inconclusive: 141 µM [activator, single point]"
O=C1COC(c2ccccc2)C2CCCCN12 (stereo unspecified),,inactive
O=C(CCc1nnc(-c2ccc3c(c2)OCO3)o1)NC(c1ccccn1)C(F)(F)F (stereo unspecified),,"inconclusive: 0.767 µM [activator, full curve, poor fit]"

# Part of the list above in order of molecular weight, rising:
Compound,activation,Potency
Cc1cc(=O)oc2cc(OCC(O)Cn3ccnc3)ccc12 (stereo unspecified),,"inconclusive: 141 µM [activator, single point]"
Cc1noc(C)c1COc1cccc(C(=O)OCCOc2ccc(F)cc2)c1,,inactive
CC(C)NC(=O)N(C)C[C@@H]1OCc2cn(nn2)CCCC(=O)N([C@H](C)CO)C[C@H]1C,,inactive

# Further compounds:

Compound,activation,Potency
O=C1c2ccccc2C(=Nc2ccccc2)C1c1cccc(Br)c1 (stereo unspecified),,"inconclusive: 0.153 µM [activator, full curve]"
COc1ccccc1CNC(=O)c1cnc2sc(N3CCOCC3)nn2c1=O,inconclusive: 32.7% [activator],
CCCSc1nnc(NC(=O)Nc2ccccc2)s1,,inactive
Clc1ccc(-c2nnc3n2CCCS3)cc1,,"inconclusive: 31.6 µM [activator, single point]"
COc1ccccc1NC(=O)c1cc2c(CO)cnc(C)c2oc1=Nc1ccc(OC)c(OC)c1,,"inconclusive: 79.4 µM [activator, single point]"
C=CCNC(=S)NNc1nc2c(c(=O)[nH]1)C1(CCCC1)Cc1ccccc1-2,,"inconclusive: 141 µM [activator, single point]"
Cn1c(CNC(=O)c2ccco2)nnc1SCC(=O)N1CCN(c2ccccc2F)CC1,,"inconclusive: 17.8 µM [activator, partial curve]"
COC(=O)C1=C(C)N=C2SC(C#N)=C(N)N2C1c1ccc(OCc2ccccc2)cc1 (stereo unspecified),,"inconclusive: 3.98 µM [activator, partial curve]"
Cc1cc(C)c(Cn2c3ccccc3c3cnn(CC(=O)NCCN4CCOCC4)c(=O)c32)c(C)c1,,inactive
Cc1cc2ccccc2n2c(SCC(=O)Nc3cccc(C(F)(F)F)c3)nnc12,inconclusive: 34.1% [activator],
O=C(O)COc1cccc(NC(=O)c2ccccc2)c1,,"inconclusive: 39.8 µM [activator, single point]"
O=C(CN(C(=O)c1csnn1)c1ccc(Cl)cc1)NCc1ccc2c(c1)OCO2,,"inconclusive: 126 µM [activator, partial curve, poor fit]"
Nc1nc(SCc2ccccc2)c2ncn(Cc3ccccc3)c2n1,,inactive
CCc1cc2ccccc2nc1SCC(=O)NC1CCCC1,,inactive
Cc1ccc(-n2c(-c3cccc(C)c3)n[nH]c2=S)cc1,,"inconclusive: 44.7 µM [activator, single point]"
COC(=O)[C@H](CC(C)C)NC(=O)c1cc2c(cn1)[nH]c1ccccc12,,"inconclusive: 70.8 µM [activator, partial curve, poor fit]"
Cc1ccc(C)c(Cn2c(=O)n(Cc3ccco3)c(=O)c3oc4ccccc4c32)c1,,"inconclusive: 126 µM [activator, single point]"
COc1ccc(S(=O)(=O)N2CCCCC2)cc1NC(=O)C1CSC2(C)CCC(=O)N12 (stereo unspecified),,"inconclusive: 100 µM [activator, single point]"
CC1CCC(C(C)C)C(OC(=O)Cn2c(-c3ccc(Cl)cc3)[n+](C)c3ccccc32)C1 (stereo unspecified),,inactive
Cc1ccc(Nc2nc3ccccc3c3nnc(C)n23)cc1Cl,,"inconclusive: 3.98 µM [activator, partial curve]"
COc1cc(-c2nnc(SCC(=O)Oc3ccccc3)o2)cc(OC)c1OC,,inactive
O=C(CCCN1C(=O)c2ccccc2C1=O)Nc1cccnc1,,"inconclusive: 39.8 µM [activator, single point]"
CC(C)(C)NC(=O)CSc1nc2ccccc2n1-c1ccccc1,inconclusive: 3.72% [activator],
